Measurements: patent US20090099195A1 (ASTRAZENECA AB, priority 2007, published 2009)
Some of these results come from one statement about several compounds together.

What follows are compounds tested against T1, P2X3 receptors (UniProt P56373) (assay: FLIPR antagonist assay, receptor or clone not stated (less preferred compounds)). Conditions: compounds also tested.
T1 sequence (P56373 1-397): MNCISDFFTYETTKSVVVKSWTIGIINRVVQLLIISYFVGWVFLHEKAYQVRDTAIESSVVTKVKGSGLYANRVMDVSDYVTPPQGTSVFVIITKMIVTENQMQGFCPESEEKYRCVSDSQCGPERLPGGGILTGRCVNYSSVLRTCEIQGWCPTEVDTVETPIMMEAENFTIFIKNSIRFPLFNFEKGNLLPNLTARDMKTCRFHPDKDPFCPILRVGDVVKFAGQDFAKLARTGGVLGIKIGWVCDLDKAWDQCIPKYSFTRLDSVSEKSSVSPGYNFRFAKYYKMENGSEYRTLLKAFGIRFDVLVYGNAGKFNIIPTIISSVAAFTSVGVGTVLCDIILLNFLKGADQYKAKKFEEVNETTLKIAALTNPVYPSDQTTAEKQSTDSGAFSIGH

IC50, > 3.3 µM:
CC(=O)N1CCN(c2nc(NC(C)C3COc4ccccc4O3)c3c(n2)C(=O)N(C(C)C)C3)CC1 (centres unmarked) [2-(4-acetylpiperazin-1-yl)-4-{[1-(2,3-dihydro-1,4-benzodioxin-2-yl)ethyl]amino}-6-(1-methylethyl)-5,6-dihydro-7H-pyrrolo[3,4-d]pyrimidin-7-one], CC(C)N1Cc2c(NCc3cnc4ccccc4c3)nc(N3CCN[C@@H](CO)C3)nc2C1=O [2-[(3R)-3-(hydroxymethyl)piperazin-1-yl]-6-(1-methylethyl)-4-[(quinolin-3-ylmethyl)amino]-5,6-dihydro-7H-pyrrolo[3,4-d]pyrimidin-7-one], CC(=O)N1CCN(c2nc3c(c(N4CCCC4C4CCCCC4)n2)CN(C(C)C)C3=O)CC1 (centres unmarked) [2-(4-acetylpiperazin-1-yl)-4-(2-cyclohexylpyrrolidin-1-yl)-6-(1-methylethyl)-5,6-dihydro-7H-pyrrolo[3,4-d]pyrimidin-7-one], COCCN1CCN(c2nc(NCc3cnc4ccccc4c3)c3c(n2)C(=O)N(C(C)C)C3)CC1 [2-[4-(2-methoxyethyl)piperazin-1-yl]-6-(1-methylethyl)-4-[(quinolin-3-ylmethyl)amino]-5,6-dihydro-7H-pyrrolo[3,4-d]pyrimidin-7-one], CC(=O)N1CCN(c2nc(N[C@H](C)c3cccc(C#N)c3)c3c(n2)C(=O)N(C(C)C)C3)CC1 [3-[(1R)-1-{[2-(4-acetylpiperazin-1-yl)-6-(1-methylethyl)-7-oxo-6,7-dihydro-5H-pyrrolo[3,4-d]pyrimidin-4-yl]amino}ethyl]benzonitrile], COCC1CCCN1c1nc(N2CCOCC2)nc2c1CN(C(C)C)C2=O (centres unmarked) [4-[2-(methoxymethyl)pyrrolidin-1-yl]-6-(1-methylethyl)-2-morpholin-4-yl-5,6-dihydro-7H-pyrrolo[3,4-d]pyrimidin-7-one], CC(=O)NCCNc1nc(NCc2cnc3ccccc3c2)c2c(n1)C(=O)N(C(C)C)C2 [N-[2-({6-(1-methylethyl)-7-oxo-4-[(quinolin-3-ylmethyl)amino]-6,7-dihydro-5H-pyrrolo[3,4-d]pyrimidin-2-yl}amino)ethyl]acetamide], Cc1ccc(Nc2nc(N3CCOCC3)nc3c2CN(C(C)C)C3=O)cc1F [4-[(3-fluoro-4-methylphenyl)amino]-6-(1-methylethyl)-2-morpholin-4-yl-5,6-dihydro-7H-pyrrolo[3,4-d]pyrimidin-7-one], CC(C)N1Cc2c(Nc3ccc(Sc4ccccc4)cc3)nc(N3CCOCC3)nc2C1=O [6-(1-methylethyl)-2-morpholin-4-yl-4-{[4-(phenylsulfanyl)phenyl]amino}-5,6-dihydro-7H-pyrrolo[3,4-d]pyrimidin-7-one], CC(C)N1Cc2c(nc(NCCN(C)C)nc2N(C)Cc2ccccc2)C1=O [4-[benzyl(methyl)amino]-2-{[2-(dimethylamino)ethyl]amino}-6-(1-methylethyl)-5,6-dihydro-7H-pyrrolo[3,4-d]pyrimidin-7-one], CC(C)N1Cc2c(Nc3ccc(Cl)cc3)nc(N3CCC(O)C3)nc2C1=O (centres unmarked) [4-[(4-chlorophenyl)amino]-2-(3-hydroxypyrrolidin-1-yl)-6-(1-methylethyl)-5,6-dihydro-7H-pyrrolo[3,4-d]pyrimidin-7-one], CC(=O)N1CCN(c2nc3c(c(N4CCC(OCc5ccccc5)C4)n2)CN(C(C)C)C3=O)CC1 (centres unmarked) [2-(4-acetylpiperazin-1-yl)-4-[3-(benzyloxy)pyrrolidin-1-yl]-6-(1-methylethyl)-5,6-dihydro-7H-pyrrolo[3,4-d]pyrimidin-7-one], CC(C)N1Cc2c(nc(N3CCOCC3)nc2N(C)CCN(C)C)C1=O [4-{[2-(dimethylamino)ethyl] (methyl)amino}-6-(1-methylethyl)-2-morpholin-4-yl-5,6-dihydro-7H-pyrrolo[3,4-d]pyrimidin-7-one], CC(C)N1Cc2c(Nc3ccc(S(=O)(=O)c4ccccc4)cc3)nc(N3CCOCC3)nc2C1=O [6-(1-methylethyl)-2-morpholin-4-yl-4-{[4-(phenylsulfonyl)phenyl]amino}-5,6-dihydro-7H-pyrrolo[3,4-d]pyrimidin-7-one], Cc1ccc(Nc2nc(N3CCOCC3)nc3c2CN(C(C)C)C3=O)cc1Cl [4-[(3-chloro-4-methylphenyl)amino]-6-(1-methylethyl)-2-morpholin-4-yl-5,6-dihydro-7H-pyrrolo[3,4-d]pyrimidin-7-one], CC(C)N1Cc2c(Nc3ccc(Cl)cc3)nc(N3CCSCC3)nc2C1=O [4-[(4-chlorophenyl)amino]-6-(1-methylethyl)-2-thiomorpholin-4-yl-5,6-dihydro-7H-pyrrolo[3,4-d]pyrimidin-7-one], CC(C)N1Cc2c(NCc3nc(-c4ccccc4)no3)nc(NCCN3CCCC3=O)nc2C1=O [6-(1-methylethyl)-2-{[2-(2-oxopyrrolidin-1-yl)ethyl]amino}-4-{[(3-phenyl-1,2,4-oxadiazol-5-yl)methyl]amino}-5,6-dihydro-7H-pyrrolo[3,4-d]pyrimidin-7-one], CC(C)N1Cc2c(Nc3ccc4c(cnn4C)c3)nc(N3CCOCC3)nc2C1=O [6-(1-methylethyl)-4-[(1-methyl-1H-indazol-5-yl)amino]-2-morpholin-4-yl-5,6-dihydro-7H-pyrrolo[3,4-d]pyrimidin-7-one], CC(=O)N1CCN(c2nc(NCc3c(-c4ccccc4)noc3C)c3c(n2)C(=O)N(C(C)C)C3)CC1 [2-(4-acetylpiperazin-1-yl)-6-(1-methylethyl)-4-{[(5-methyl-3-phenylisoxazol-4-yl)methyl]amino}-5,6-dihydro-7H-pyrrolo[3,4-d]pyrimidin-7-one], CC(=O)N1CCN(c2nc(NCc3cc4ccccc4[nH]3)c3c(n2)C(=O)N(C(C)C)C3)CC1 [2-(4-acetylpiperazin-1-yl)-4-[(1H-indol-2-ylmethyl)amino]-6-(1-methylethyl)-5,6-dihydro-7H-pyrrolo[3,4-d]pyrimidin-7-one], O=C1c2nc(N3CCOCC3)nc(Nc3ccc(Cl)cc3)c2CN1C1CCCC1 [4-[(4-chlorophenyl)amino]-6-cyclopentyl-2-morpholin-4-yl-5,6-dihydro-7H-pyrrolo[3,4-d]pyrimidin-7-one], CC(C)N1Cc2c(NCc3cnc4ccccc4c3)nc(NCC3CCC(=O)N3)nc2C1=O (centres unmarked) [6-(1-methylethyl)-2-{[(5-oxopyrrolidin-2-yl)methyl]amino}-4-[(quinolin-3-ylmethyl)amino]-5,6-dihydro-7H-pyrrolo[3,4-d]pyrimidin-7-one], CCCCCCC(C)N1Cc2c(nc(N3CCOCC3)nc2N2CCCCC2)C1=O (centres unmarked) [6-(1-methylheptyl)-2-morpholin-4-yl-4-piperidin-1-yl-5,6-dihydro-7H-pyrrolo[3,4-d]pyrimidin-7-one], CCOCC1CCCN1c1nc(N2CCN(C(C)=O)CC2)nc2c1CN(C(C)C)C2=O (centres unmarked) [2-(4-acetylpiperazin-1-yl)-4-[2-(ethoxymethyl)pyrrolidin-1-yl]-6-(1-methylethyl)-5,6-dihydro-7H-pyrrolo[3,4-d]pyrimidin-7-one], CC(=O)N1CCN(c2nc(NCc3ccc(C(F)(F)F)o3)c3c(n2)C(=O)N(C(C)C)C3)CC1 [2-(4-acetylpiperazin-1-yl)-6-(1-methylethyl)-4-({[5-(trifluoromethyl)furan-2-yl]methyl}amino)-5,6-dihydro-7H-pyrrolo[3,4-d]pyrimidin-7-one], CC(=O)Nc1ccc(Nc2nc(N3CCOCC3)nc3c2CN(C(C)C)C3=O)cc1 [N-(4-{[6-(1-methylethyl)-2-morpholin-4-yl-7-oxo-6,7-dihydro-5H-pyrrolo[3,4-d]pyrimidin-4-yl]amino}phenyl)acetamide], CC(=O)N1CCN(c2nc(NC3CCc4c(F)cccc43)c3c(n2)C(=O)N(C(C)C)C3)CC1 (centres unmarked) [2-(4-acetylpiperazin-1-yl)-4-[(4-fluoro-2,3-dihydro-1H-inden-1-yl)amino]-6-(1-methylethyl)-5,6-dihydro-7H-pyrrolo[3,4-d]pyrimidin-7-one], CC(=O)N1CCN(c2nc(NCc3ccc(C(F)(F)F)nc3C)c3c(n2)C(=O)N(C(C)C)C3)CC1 [2-(4-acetylpiperazin-1-yl)-6-(1-methylethyl)-4-({[2-methyl-6-(trifluoromethyl)pyridin-3-yl]methyl}amino)-5,6-dihydro-7H-pyrrolo[3,4-d]pyrimidin-7-one], CC(=O)N1CCN(c2nc3c(c(N(C)Cc4cnn(-c5cccc(C)c5)c4)n2)CN(C(C)C)C3=O)CC1 [2-(4-acetylpiperazin-1-yl)-6-(1-methylethyl)-4-(methyl {[1-(3-methylphenyl)-1H-pyrazol-4-yl]methyl}amino)-5,6-dihydro-7H-pyrrolo[3,4-d]pyrimidin-7-one], CC(=O)N1CCN(c2nc(NCc3cccnc3)c3c(n2)C(=O)N(C(C)C)C3)CC1 [2-(4-acetylpiperazin-1-yl)-6-(1-methylethyl)-4-[(pyridin-3-ylmethyl)amino]-5,6-dihydro-7H-pyrrolo[3,4-d]pyrimidin-7-one], CC(C)N1Cc2c(NCc3nc(-c4ccccc4)no3)nc(N(C)C)nc2C1=O [2-(dimethylamino)-6-(1-methylethyl)-4-{[(3-phenyl-1,2,4-oxadiazol-5-yl)methyl]amino}-5,6-dihydro-7H-pyrrolo[3,4-d]pyrimidin-7-one], COc1cccc(Nc2nc(N3CCOCC3)nc3c2CN(C(C)C)C3=O)c1 [4-[(3-methoxyphenyl)amino]-6-(1-methylethyl)-2-morpholin-4-yl-5,6-dihydro-7H-pyrrolo[3,4-d]pyrimidin-7-one]
